According to PubChem BioAssay AID2685 (National Center for Advancing Translational Sciences (NCATS), 2010):
This is one part of the list. These are further read-outs of the screen, such as a control signal, another cell line or another target. No call is given for them. The list favours compounds with an active or inconclusive main result. The note in brackets gives the kind of curve behind each potency; many fits are weak.

Experiment: qHTS Assay for Lipid Storage Modulators in Drosophila S3 Cells;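 for cell number change: cells counted by Cell Tracker Red CMTPX staining in the red channel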
Conditions: BODIPY lipid droplet fluorescence, 18-24 h; for cell number change: measured here: cell count max response, cells fed with added oleic acid
How it was run: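 Laser-scanning cytometry quantifies lipid droplet accumulation (500–530 nm total intensity; droplet/cell object ratio) in oleic acid-fed (400 uM added) Drosophila S3 cells treated with a concentration series. 20 uM Triacsin C defined 100% inhibition.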

[1] = measured here: lipid fluorescence (Fed channel) AC50, cells fed with added oleic acid
[2] = measured here: cell number channel AC50, cells fed with added oleic acid

Row | SMILES | cell number change [%] | AC50 [1] | AC50 [2]
1 | CC(C)(C)C(=O)Nc1nnc(SCC(=O)NC2CCCC2)s1 | -13.2 |  | 
2 | O=C(c1c(O)cc(O)cc1O)C1c2c(cc(O)c3c2O[C@H](c2ccc(O)cc2)[C@@H](O)C3)OC1c1ccc(O)cc1 (stereo not given in full) | 14.8 | 29.1 µM [rising, single point] | 
3 | CCOc1ccc(N2CC(C(=O)Nc3nnc(Cc4ccccc4)s3)CC2=O)cc1 (stereo not given) | -1.9 | 0.231 µM [rising, full curve, poor fit] | 
4 | O=C(CN(C(=O)CNC(=O)c1ccco1)c1ccccc1F)NC1CCCCC1 | -0.417 |  | 
5 | O=C(COc1ccc(C(=O)O)cc1)Nc1cccc(C(F)(F)F)c1 | 2.64 | 29.1 µM [falling, partial curve, poor fit] | 
6 | CC1CCCC(NC(=O)CSc2nnnn2C)C1C (stereo not given) | 3.25 | 32.6 µM [rising, single point] | 
7 | Oc1c(N=NC(=S)Nc2ccccc2F)c2ccccc2n1Cc1ccc(Cl)cc1 | -44.7 |  | 0.0164 µM [falling, full curve, poor fit]
8 | Nc1cc(Oc2cccnc2)cc([N+](=O)[O-])c1 | 2.65 | 0.184 µM [falling, full curve, poor fit] | 
9 | Cc1ccc(C(=O)CCC(=O)Nc2ccccc2C)c(C)c1 | -16.8 | 32.6 µM [rising, single point] | 
10 | O=C(Nc1ccccc1)c1ccc(NCCN2C(=O)CCC2=O)c([N+](=O)[O-])c1 | -42.9 | 2.91 µM [falling, full curve] | 2.59 µM [falling, full curve]
11 | COc1ccccc1C(=O)NCCOc1ccc(C(C)(C)C)cc1 | -28.3 | 29.1 µM [falling, single point] | 
12 | Cc1ccc(-n2c(Cc3cccs3)nnc2SCC(=O)OC(C)C)cc1 | -2.49 | 0.092 µM [falling, full curve, poor fit] | 
13 | CC12CCC(C(=O)Nc3ccncc3)(CC1O)C2(C)C (stereo not given) | -29.7 |  | 
14 | COc1ccc(C(=O)N[C@H](C(=O)Nc2ccc(S(=O)(=O)N3CCOCC3)cc2)C(C)C)cc1 | 3.18 | 0.058 µM [falling, full curve, poor fit] | 
15 | N#Cc1c(-c2ccccc2F)cc(-c2cccnc2)nc1N | -16.7 | 2.59 µM [rising, partial curve, poor fit] | 6.51 µM [rising, single point]
16 | O=C(CCN1C(=O)COc2ccccc21)NCCCN1CCCC1 |  | 29.1 µM [rising, single point] | 
17 | Cc1ccc(S(=O)(=O)NC2OC(=O)C(Cl)=C2Cl)cc1 (stereo not given) | -35.1 |  | 25.9 µM [falling, partial curve, poor fit]
18 | O=C1C(N2CCOCC2)=C(n2nnc3ccccc32)C(=O)c2ccccc21 | -50 | 20.6 µM [falling, partial curve] | 16.4 µM [falling, single point]
19 | O=C(CCCN1C(=O)/C(=C/c2cccs2)SC1=S)Nc1cc([N+](=O)[O-])ccc1O | -3.3 | 8.2 µM [rising, partial curve] | 
20 | O=C(CSc1ccc(Cl)cc1)Nc1ccc(N2CCN(C(=O)c3ccco3)CC2)cc1 |  |  | 6.51 µM [rising, single point]
21 | CC(C)NC(=O)c1ccc2c(c1)N(CC(=O)N1CCOCC1)C(=O)C(C)(C)O2 | 2.82 | 0.00651 µM [rising, full curve, poor fit] | 

Row | SMILES | cell number change [%] | AC50 [1] | AC50 [2]
22 | Cc1ccc(S(=O)(=O)N(Cc2cccc(F)c2)C(=O)N2CCN(C)CC2)cc1 | -37.3 | 16.4 µM [falling, partial curve] | 11.6 µM [falling, partial curve]
23 | Cc1ccccc1NC(=O)NCCc1c[nH]c2ccccc12 | 11.5 |  | 
24 | Cc1ccc(C2(C)NC(=O)N(CC(=O)Nc3ccc4[nH]c(=O)[nH]c4c3)C2=O)cc1 (stereo not given) | 9.44 |  | 
25 | CC(=O)c1cccc(NC(=O)c2cccc(S(=O)(=O)N(C)C)c2)c1 | -15.6 | 1.84 µM [rising, partial curve] | 
26 | COc1ccc(-c2cc(C)no2)cc1S(=O)(=O)N1CCN(c2cccc(C)c2)C(C)C1 (stereo not given) | 31.2 | 5.17 µM [rising, single point] | 32.6 µM [rising, single point]
27 | COc1cc(OC)cc(-c2nnc(SCc3cccnc3)o2)c1 | -11.3 | 0.517 µM [rising, full curve] | 
28 | CCOc1ccc(CCNC(=O)c2ccc(C)c(N3CCCC3=O)c2)cc1OCC | -60.4 | 0.58 µM [falling, full curve] | 0.517 µM [falling, full curve, poor fit]
29 | CC1=C(C(=O)OCc2ccccc2)C(c2cccc3ccccc23)NC(=O)N1CCCC(=O)O (stereo not given) | 21.8 | 10.3 µM [rising, partial curve, poor fit] | 
30 | O=C(CNCc1ccc(F)cc1)Nc1ccc(C(=O)N2CCCCC2)cc1 | 33.8 |  | 
31 | O=C(O)CC12CC3CC(C1)CC(n1ncc(NCc4ccc(F)cc4)c(Cl)c1=O)(C3)C2 | 12.3 | 0.731 µM [rising, single point] | 
32 | S=C(NCc1ccco1)Nc1ccc(Cl)c(Cl)c1 | -12.6 | 6.51 µM [falling, full curve] | 
33 | CCN(CC)S(=O)(=O)c1ccc(C(=O)N(c2ccc(C)cc2)C2C=CS(=O)(=O)C2)cc1 (stereo not given) | 1.22 | 32.6 µM [rising, single point] | 
34 | COc1ccc(C(=O)Nc2ccccc2C(=O)N2CCCCC2C)cc1 (stereo not given) | -18.2 |  | 
35 | Cc1cc(O)c(C(C)C)cc1NC(=O)c1ccc(Cl)cc1 | -45 | 0.731 µM [falling, full curve] | 0.092 µM [falling, full curve]
36 | C=CCN(c1ccc(C(=O)Nc2ccc(NC(C)=O)cc2)cc1)S(C)(=O)=O | 5.74 | 0.517 µM [falling, single point] | 
37 | COc1ccc2cc(CN(CCO)C(=O)c3ccc(Br)cc3)c(=O)[nH]c2c1 | -12 | 29.1 µM [rising, single point] | 
38 | N#Cc1ccc(COc2cccnc2[N+](=O)[O-])cc1 | 24.4 |  | 
39 | CC1=NN(c2ccccc2)C(=O)/C1=C/c1cc(C)n(C2CC2)c1C |  | 0.651 µM [rising, single point] | 0.82 µM [rising, single point]
40 | CNCCCOc1ccc(C)cc1Br |  | 0.651 µM [falling, single point] | 
41 | Cc1nn(-c2ccc(C(=O)NCC(c3ccco3)N3CCCC3)cc2)c(C)c1Cl (stereo not given) | -9.42 | 1.03 µM [falling, full curve] | 
42 | COc1ccc(-c2cn3c(C)c(C(=O)N4CCN(c5ccc(F)cc5)CC4)sc3n2)cc1 | 15.2 | 0.0366 µM [rising, full curve, poor fit] | 

Row | SMILES | cell number change [%] | AC50 [1] | AC50 [2]
43 | COc1ccc(N(CC(=O)NCCSCc2cccc(Cl)c2)S(C)(=O)=O)cc1Cl | -23.7 | 29.1 µM [falling, single point] | 
44 | O=C(NCc1ccc(F)cc1)C1CCCN1C(=O)Nc1ccccc1 (stereo not given) | 3.41 | 1.46 µM [falling, full curve, poor fit] | 
45 | COc1cc(OC)cc(C(=O)NC(=S)NCCc2ccccc2)c1 | -14.1 |  | 
46 | COc1cccc(NC(=O)c2cc(CN3C(=O)c4ccccc4C3=O)ccc2OC)c1 |  | 2.59 µM [rising, full curve] | 
47 | Cc1cc(/C=C2\SC(N)=NC2=O)c(C)n1-c1ccccc1 | 15.6 | 4.11 µM [falling, partial curve, poor fit] | 
48 | Cc1ccc2nc(Cl)nc(-c3ccccc3)c2c1 | 14.3 | 0.0103 µM [rising, full curve, poor fit] | 
49 | CC(NC(=O)CN1C(=O)NC2(CCCC2)C1=O)c1ccc2ccccc2c1 (stereo not given) | -3.4 | 0.517 µM [falling, single point] | 
50 | O=C(c1ccc(S(=O)(=O)Nc2ccc(F)cc2)cc1)N1CCN(c2ccccn2)CC1 | -5.87 |  | 
51 | CCOC(=O)c1cccc(N2C(=O)c3ccccc3S2(=O)=O)c1 | -15.6 | 25.9 µM [rising, single point] | 
52 | CCOc1ccc(Cl)cc1C(c1c(C)[nH][nH]c1=O)c1c(C)[nH][nH]c1=O | -8.24 | 6.51 µM [rising, single point] | 
53 | COc1ccc(CCc2nnc(N)s2)cc1OC | -19.9 |  | 
54 | Nc1nc(N)nc(-c2ccc(Cl)cc2)n1 | -3.44 |  | 
55 | O=C(CCSCc1ccccc1Cl)N1CCN(c2ccccn2)CC1 | -6.71 |  | 0.461 µM [rising, full curve, poor fit]
56 | O=C(COC(=O)COc1ccc(Cl)cc1)NC1CCCC1 | 11.7 | 4.61 µM [rising, partial curve] | 
57 | Cc1sc2ncnc(NCC3COc4ccccc4O3)c2c1C (stereo not given) | -38.4 | 2.06 µM [falling, full curve] | 4.61 µM [falling, full curve, poor fit]
58 | CS(=O)c1nc(-c2ccc(Br)cc2)cc(-c2ccccc2)c1C#N (stereo not given) | -25.4 |  | 
59 | CN1CCN(c2ccc(NC(=O)c3sc4ccccc4c3Cl)cc2)CC1 | 20.6 |  | 
60 | O=C(NCCS(=O)(=O)N1CCCCCC1)c1ccc(F)cc1 | -4.18 | 6.51 µM [falling, single point] | 
61 | O=C(Nc1ccccc1)n1ccc(-c2ccc(-n3ccnc3)cc2)n1 | -20.8 | 29.1 µM [falling, single point] | 
62 | O=C(Nc1ccccc1F)C(=O)Nc1cccc2ccccc12 | 8.8 |  | 
63 | O=C(c1ccc2ccccc2n1)N1CCN(c2ccccc2O)CC1 | -54 | 29.1 µM [rising, single point] | 

Reformatted with tabs: part of the list above
Row	SMILES	cell number change [%]	AC50 [1]	AC50 [2]
47	Cc1cc(/C=C2\SC(N)=NC2=O)c(C)n1-c1ccccc1	15.6	4.11 µM [falling, partial curve, poor fit]	
48	Cc1ccc2nc(Cl)nc(-c3ccccc3)c2c1	14.3	0.0103 µM [rising, full curve, poor fit]	
